Data published in PubChem BioAssay AID330 (DTP/NCI, 2004).
The list does not hold the whole screen: it gathers tests that were run many times, whatever their T/C, doses with no T/C, and many T/C values between a quarter and a half above the control. Other doses and runs of a compound stand elsewhere. T/C gives the treated animals as a percentage of the vehicle group. Some doses have a count of surviving animals in place of a T/C: the source files T/C as zero there, which appears to mark a toxic dose or a test without result, not a measured value. Some survivor counts are full or nearly so, which does not show that the dose was tolerated: survival well below the control is almost never listed, so the zero probably covers shortened survival too. Counts of survivors are from the toxicity check (mostly the fifth day) where no day follows; animals may have died later. Schedules are NCI's codes, read here as Q, the interval in days (D) or hours (H), X, the number of doses. Some doses were run more than once; their values stand side by side, smallest first. Where survival is the endpoint, this PubChem deposit counts one and a half times the control or more as active, and values a quarter to a half above the control carry no call in these data; other NCI protocols may use other cut-offs. Some T/C values carry the count of animals alive at the toxicity check (mostly the fifth day); where none is given, no animal had died by that day.

Test system: P388 leukemia ip, CD2F1 mice, survival T/C
Experiment: NCI In Vivo Anticancer Drug Screen. Data for tumor model P388 Leukemia (intraperitoneal) in CD2F1 (CDF1) mice
Conditions: T/C endpoint: median survival time, higher T/C = longer survival
[1] = dose: 120.0 mg/kg/injection, schedule: Q01DX005 (ip), vehicle: Klucel (hydroxypropylcellulose) (HPC)
[2] = dose: 240.0 mg/kg/injection, schedule: Q01DX005 (ip), vehicle: Klucel (hydroxypropylcellulose) (HPC)
[3] = dose: 400.0 mg/kg/injection, schedule: Q01DX001 (ip), vehicle: Klucel (hydroxypropylcellulose) (HPC)
[4] = dose: 100.0 mg/kg/injection, schedule: Q01DX009 (ip), vehicle: saline with Tween-80
[5] = dose: 200.0 mg/kg/injection, schedule: Q01DX009 (ip), vehicle: saline with Tween-80
[6] = dose: 50.0 mg/kg/injection, schedule: Q01DX005 (ip), vehicle: saline with Tween-80
[7] = dose: 100.0 mg/kg/injection, schedule: Q01DX005 (ip), vehicle: saline with Tween-80
[8] = dose: 200.0 mg/kg/injection, schedule: Q01DX009 (ip), vehicle: Klucel (hydroxypropylcellulose) (HPC)
[9] = dose: 400.0 mg/kg/injection, schedule: Q01DX009 (ip), vehicle: saline with Tween-80
[10] = dose: 200.0 mg/kg/injection, schedule: Q01DX005 (ip), vehicle: Klucel (hydroxypropylcellulose) (HPC)
[11] = dose: 100.0 mg/kg/injection, schedule: Q01DX001 (ip), vehicle: Klucel (hydroxypropylcellulose) (HPC)
[12] = dose: 200.0 mg/kg/injection, schedule: Q01DX001 (ip), vehicle: Klucel (hydroxypropylcellulose) (HPC)
[13] = dose: 25.0 mg/kg/injection, schedule: Q01DX009 (ip), vehicle: saline with Tween-80
[14] = dose: 50.0 mg/kg/injection, schedule: Q01DX009 (ip), vehicle: saline with Tween-80

How did the T/C [1] turn out when CCCC1SCC(=O)N1c1nncs1 (configuration not stated) was run?
The T/C was 130 % of control.

What about the T/C [2] of the same compound?
Its T/C is 147 % of control.

What about the T/C [3] of the same compound?
Its T/C is 125 % of control.

What does the source list for O=C(O)C(O)C(O)C(O)C(O)CO.[Mn] (configuration not stated)?
T/C [4]: 130 % of control; survivor count [5]: 5 of 6

For Cn1c(=O)c2c(ncn2-c2ccc(N)cc2)n(C)c1=O, which survivor count (dose: 100.0 mg/kg/injection, schedule: Q01DX005 (ip), vehicle: water) is on record?
The survivor count was 4 of 5.

And the survivor count (dose: 200.0 mg/kg/injection, schedule: Q01DX005 (ip), vehicle: water)?
The survivor count was 0 of 5.

CCOP(=O)(O)SP(=O)(O)OCC.[Zn+2] was tested. Which survivor count [4] did it give?
Its survivor count is 3 of 6 and 4 of 6.

And the survivor count [5]?
Its survivor count is 1 of 6.

Which results are given for NC(N)=N/N=C/c1c2ccccc2cc2ccccc12?
T/C (dose: 50.0 mg/kg/injection, schedule: Q01DX005 (ip), vehicle: saline with Tween-80, evaluated on day 20): 111 % of control; T/C (dose: 50.0 mg/kg/injection, schedule: Q01DX005 (ip), vehicle: saline with Tween-80, evaluated on day 30): 116 % of control [5 of 6 alive]; survivor count [6]: 0 of 6 and 3 of 6; survivor count [7]: 3 of 6; survivor count (dose: 200.0 mg/kg/injection, schedule: Q01DX005 (ip), vehicle: saline with Tween-80): 0 of 6

How did the survivor count [7] turn out when O=[N+]([O-])c1ccc2c(c1)c(S(=O)(=O)O)cc1nonc12 was run?
Its survivor count is 5 of 5.

What does the source list for CC(=O)O[C@@H]1C[C@H](O)[C@@]23COC(O)[C@H]1[C@@H]2C[C@@H](O)[C@@]1(C)C2C(=O)C[C@@H](c4ccoc4)[C@]2(C)CC[C@@H]13 (some centres not stated)?
survivor count (dose: 0.3 mg/kg/injection, schedule: Q01DX009 (ip), vehicle: Klucel (hydroxypropylcellulose) (HPC)): 6 of 6; survivor count (dose: 0.6 mg/kg/injection, schedule: Q01DX009 (ip), vehicle: Klucel (hydroxypropylcellulose) (HPC)): 6 of 6; survivor count (dose: 1.2 mg/kg/injection, schedule: Q01DX009 (ip), vehicle: Klucel (hydroxypropylcellulose) (HPC)): 6 of 6

CC(C)NCC(O)COc1ccccc1C1CCCCC1 (configuration not stated) was tested. Which survivor count [4] did it give?
Its survivor count is 4 of 6.

And the survivor count [5]?
The survivor count was 0 of 6.

For O=C(Sc1ccccc1)C1CC=CCC1 (configuration not stated), which survivor count [8] is on record?
Its survivor count is 0 of 6.

COc1ccccc1CC(N)c1nn[nH]n1 (configuration not stated) was tested. Which survivor count [9] did it give?
The survivor count was 3 of 6.

For C=C1C(C)C2C(Cc3ccccc3)NC(=O)C23C(OC(C)=O)C=CC(C)(O)C(=O)C(C)C/C=C/C3C1O (configuration not stated), which T/C (dose: 10.0 mg/kg/injection, schedule: Q01DX009 (ip), vehicle: Klucel (hydroxypropylcellulose) (HPC)) is on record?
Its T/C is 139 % of control.

What does the source list for OCCN(CCCN(CCO)C(=S)S)C(=S)S.[Cu+2]?
survivor count (dose: 100.0 mg/kg/injection, schedule: Q01DX005 (ip), vehicle: saline + Tween-80 + alcohol): 0 of 5; survivor count (dose: 200.0 mg/kg/injection, schedule: Q01DX005 (ip), vehicle: saline + Tween-80 + alcohol): 0 of 5

Which survivor count (dose: 240.0 mg/kg/injection, schedule: Q01DX005 (ip), vehicle: saline) does the source give for NC1C(=O)Nc2ccccc21 (configuration not stated) here?
Its survivor count is 1 of 6.

CC(C)C(NC(=O)C(CSCc1ccccc1)NC(=O)OCc1ccccc1)C(=O)O (configuration not stated) was tested. Which survivor count [10] did it give?
The survivor count was 2 of 6.

With CCCCCCCCCCCC(=O)/C=C/c1ccc(Cl)c(Cl)c1 as the compound, how does the survivor count [8] read?
The survivor count was 6 of 6.

N#CNC(=NC12CC3CC(CC(C3)C1)C2)Nc1ccncc1 was tested. Which survivor count (dose: 200.0 mg/kg/injection, schedule: Q04DX002 (ip), vehicle: saline with Tween-80) did it give?
The survivor count was 6 of 6.

With CCC(c1ccc(OC)cc1)C(NCC(=O)NNC(=O)CNC(c1ccc(OC)cc1)C(CC)c1ccc(OC)cc1)c1ccc(OC)cc1 (configuration not stated) as the compound, how does the survivor count (dose: 100.0 mg/kg/injection, schedule: Q04DX002 (ip), vehicle: saline with Tween-80) read?
The survivor count was 5 of 6.

How did the T/C (dose: 200.0 mg/kg/injection, schedule: Q01DX001 (ip), vehicle: saline) turn out when O=c1c2cc(O)c(O)cc2oc2cc(O)c(C3OC(CO)C(O)C(O)C3O)c(O)c12 (configuration not stated) was run?
Its T/C is 135 % of control.

What does the source list for COc1cc2cc(-c3ccc4c(c3)OCO4)[n+](C)cc2cc1OC?
survivor count [11]: 2 of 6; survivor count [12]: 0 of 6; survivor count [3]: 0 of 6

For CC(C)=CCCC(C)(OC1OC(CO)C(O)C(O)C1O)C1CCC2(C)C1C(O)CC1C3(C)CCC(O)C(C)(C)C3C(OC3OC(CO)C(O)C(O)C3OC3OC(C)C(O)C(O)C3O)CC12C (configuration not stated) (tested in a mixture with another compound), which survivor count (dose: 300.0 mg/kg/injection, schedule: Q01DX009 (ip), vehicle: Klucel (hydroxypropylcellulose) (HPC)) is on record?
The survivor count was 0 of 6.

For CC(=O)OC1CC(C)(O)Cc2cc3c(c(O)c21)C(=O)c1c(O)cc2c(c1C3=O)OC1OC2(C)C(O)C(N(C)C)C1O (configuration not stated), which T/C (dose: 0.87 mg/kg/injection, schedule: Q01DX009 (ip), vehicle: other) is on record?
Its T/C is 133 % of control.

What about the T/C (dose: 1.75 mg/kg/injection, schedule: Q01DX009 (ip), vehicle: other) of the same compound?
The T/C was 144 % of control.

For Cc1oc2c(C)c3oc(=O)cc(C)c3cc2c1CCl, which T/C (dose: 50.0 mg/kg/injection, schedule: Q04DX002 (ip), vehicle: saline with Tween-80) is on record?
The T/C was 125 % of control.

What about the T/C (dose: 100.0 mg/kg/injection, schedule: Q05DX002 (ip), vehicle: saline with Tween-80) of the same compound?
Its T/C is 132 % of control.

What about the T/C (dose: 200.0 mg/kg/injection, schedule: Q05DX002 (ip), vehicle: saline with Tween-80) of the same compound?
The T/C was 136 % of control.

Which results are given for C1CCN(CCCCN2CCCCC2)CC1?
survivor count (dose: 100.0 mg/kg/injection, schedule: Q01DX009 (ip), vehicle: saline): 2 of 6; survivor count (dose: 200.0 mg/kg/injection, schedule: Q01DX009 (ip), vehicle: saline): 2 of 6

For CC1CCC(C(=O)C(Cl)C(Cl)C2CCCCC2)CC1 (configuration not stated), which survivor count [10] is on record?
The survivor count was 6 of 6.

For CSCCC(NC(=O)OC(C)(C)C)C(=O)ON1C(=O)CCC1=O (configuration not stated), which T/C [6] is on record?
Its T/C is 125 % of control.

For O=C1C=CCCCC1, which survivor count [4] is on record?
Its survivor count is 4 of 6.

And the survivor count (dose: 150.0 mg/kg/injection, schedule: Q01DX009 (ip), vehicle: saline with Tween-80)?
Its survivor count is 3 of 6.

With O=C1c2ccccc2C(=O)c2c(Cl)cccc21 as the compound, how does the survivor count [4] read?
Its survivor count is 6 of 6.

And the survivor count [5]?
The survivor count was 6 of 6.

And the survivor count [9]?
Its survivor count is 6 of 6.

Cc1ccc(-c2cc3cc4c(cc3[nH]2)Sc2ccccc2O4)cc1 was tested. Which survivor count [3] did it give?
The survivor count was 5 of 6.

Which survivor count (dose: 250.0 mg/kg/injection, schedule: Q01DX009 (ip), vehicle: saline with Tween-80) does the source give for CC(=O)Oc1ccccc1C(=O)O here?
The survivor count was 3 of 6.

For CN(C)CCOc1ccc2c(c1)C(=O)/C(=C\c1ncc([N+](=O)[O-])n1C)C2, which T/C [13] is on record?
The T/C was 126 % of control.

What about the T/C [14] of the same compound?
The T/C was 126 and 129 % of control.

And the T/C [4]?
Its T/C is 129 % of control [5 of 6 alive].

What about the survivor count [5] of the same compound?
Its survivor count is 1 of 6.

With CCOC(=O)C1=C(C)NC(C)=C(C(=O)OCC)C1C as the compound, how does the survivor count (dose: 400.0 mg/kg/injection, schedule: Q01DX009 (ip), vehicle: saline) read?
The survivor count was 5 of 6.

How did the survivor count (dose: 3.0 mg/kg/injection, schedule: Q01DX009 (ip), vehicle: saline with Tween-80) turn out when [C-]#[N+]C1CCCCC1.[C-]#[N+]C1CCCCC1.[C-]#[N+]C1CCCCC1.[C-]#[N+]C1CCCCC1.[C-]#[N+]C1CCCCC1.[C-]#[N+]C1CCCCC1.[Mn] was run?
Its survivor count is 1 of 6 and 2 of 6.

What about the survivor count (dose: 6.25 mg/kg/injection, schedule: Q01DX009 (ip), vehicle: saline with Tween-80) of the same compound?
The survivor count was 0 of 6.

And the survivor count (dose: 12.5 mg/kg/injection, schedule: Q01DX009 (ip), vehicle: saline with Tween-80)?
Its survivor count is 0 of 6.

And the survivor count [13]?
The survivor count was 0 of 6.

What about the survivor count [14] of the same compound?
The survivor count was 0 of 6.

And the survivor count [4]?
The survivor count was 0 of 6.

And the survivor count [5]?
The survivor count was 0 of 6.

What does the source list for O=C1NNC(=O)C1C(=O)Nc1ccccc1?
survivor count (dose: 7.5 mg/kg/injection, schedule: Q01DX005 (ip), vehicle: Klucel (hydroxypropylcellulose) (HPC)): 5 of 6; survivor count (dose: 30.0 mg/kg/injection, schedule: Q01DX005 (ip), vehicle: Klucel (hydroxypropylcellulose) (HPC)): 2 of 6; survivor count (dose: 60.0 mg/kg/injection, schedule: Q01DX005 (ip), vehicle: Klucel (hydroxypropylcellulose) (HPC)): 0 of 6; survivor count [1]: 0 of 6; survivor count [2]: 0 of 6

Which survivor count [11] does the source give for OC1(c2ccc(CCc3ccc(C4(O)C(c5ccccc5)=C(c5ccccc5)C(c5ccccc5)=C4c4ccccc4)cc3)cc2)C(c2ccccc2)=C(c2ccccc2)C(c2ccccc2)=C1c1ccccc1 here?
The survivor count was 6 of 6.

And the survivor count [3]?
Its survivor count is 6 of 6.

With COc1ccc(CCNC2=C(/C=C\C(=O)O)C(=O)CC2)cc1OC as the compound, how does the survivor count [12] read?
Its survivor count is 6 of 6.

What about the survivor count [3] of the same compound?
Its survivor count is 5 of 6.
